The list shows a part of the results.
B1: il2ra_site2_2erj_normal_mot_HHH_b2_05804_000000098_0001_44_58_H_._HHH_b1_07085_0001_0000100001_0000001_0 (protein)
chain: SSSSSSEKEVWERVARLLAKLLEVDEEEAEELLREAEELAREAGNPFLRRYVEFARRAHSSSSSS
B2: il2ra_site1_1z92_normal_mot_01209686ea234b34325f918445e6eade_0001_af2_000000154_0001_18_33_H_._7b307295d781cb7152fbdfa8f828ada6_0001_0001_0000600015_0000001_0_a … (protein)
chain: SKLEEVERLLEELAKKDPLARELLLALEEMKRAGLPPRSIALALVRLAEHAGNPELAELIQEILR
B3: il2ra_site2_3nfp_normal_mot_HHH_b1_06642_af2_000000244_0001_21_37_H_._ems_3hM_1036_0001_0000100008_0000001_0_af2pred_0001_1_af2pred_swapped (protein)
chain: PEEEEEELQRRALELYAAVADATSEEEAKRIIKEAKEWVEEVGDEEVAKLLKLALEEARELVERS
B4: il2ra_site1_2b5i_sap_11_mot_HHH_b1_03295_000000174_0001_24_40_H_._HHH_b2_04752_0001_0000600034_0000001_0_0001 (protein)
chain: SSSDRQELDKIASELVDELAEEFGLDSEQINALVRLATELVWRGVSPEEIEEELEKLAKELSSSS
B5: il2ra_site1_1z92_normal_mot_HHH_b2_05498_af2_000000074_0001_38_52_H_._HHH_b1_06558_0001_0000100006_0000001_0 (protein)
chain: SSSDSEERAHELAEFAIEAYEITGSEFARELVELKIELLQRLGDEELVEELEELLKEAERRSSSS
B6: il2ra_site1_3nfp_sap_22_mot_0eddeacbb14b769e73e254714f31e2f9_0001_af2_000000052_0001_37_51_H_._d4a0d7e14d3257bbacf2cba0c18c7893_0001_1_af2_0001_0000600027_00000 … (protein)
chain: SSSSDAREEAKELLERALRLALEGDKEEVEKLLERIEELAEESNDPKIEKLLRLLERSLRGSSSS
B7: il2ra_site2_2erj_sap_15_mot_HHH_b1_01129_af2_000000281_0001_18_33_H_._36aedc3324f391c701bbcbfdbcae1c8e_0001_0001_0000300008_0000001_0_0001 (protein)
chain: SSSSSLRELYELANRALHALSKGDEELVEELLEEAKKLAEELNSESVKEHLEALERLLRQLSSSS
B8: il2ra_site1_3nfp_normal_mot_9410bc1eedee1757c7b766bec531e3ee_0001_1_000000027_0001_33_48_H_._HHH_b1_05651_af2_0001_0000500031_0000001_1 (protein)
chain: SSSSSDEEEIRRRIEELLRLVAKIPDPEEAREALEEAIELAKEINNEKLLEKLERAAERLSSSSS
B9: il2ra_site1_2b5i_normal_mot_HHH_b2_00318_000000002_0001_42_56_H_._HHH_b2_06122_af2_0001_0000300015_0000001_0 (protein)
chain: SSSSDLAEEVQKAFLEASRLFLKGDQEEARKLLEELLKELEERNDERNFEDVHRFLEWIHRSSSS
B10: il2ra_site1_1z92_sap_7_mot_74bb627b62bb877a56547cee6c7a6e54_0001_000000029_0001_1_13_H_._HHH_b2_07848_0001_0000200030_0000001_1_0001_af2pred_0001_af2pred_swappe … (protein)
chain: SSSSSSEELAKKIVRILVEAARLSEEQQEELEELARELVKRGYSFEEISKILDKLAAELSSSSSS

Target: il2ra, P01589
Experiment: yeast display titration

Apparent Kd, inactive:
B1 no binding seen
B2 no binding seen
B3 no binding seen
B4 no binding seen
B5 no binding seen
B6 no binding seen
B7 no binding seen
B8 no binding seen
B9 no binding seen
B10 no binding seen

Reprinted at random: two entries already listed.
Apparent Kd, inactive:
B3 no binding seen
B2 no binding seen

— article PMC10163288
